Some results were stated once for a whole list of compounds, not compound by compound.
What was measured:
c-Met [1] = molecular target: T1, c-Met (Mus musculus, UniProt P16056); assay: c-Met cell-based autophosphorylation assay in CT26 cells; conditions: HGF-stimulated c-Met autophosphorylation
T1 construct: host or cells: CT26 cells

The chains behind the UniProt entries cited, without tags or fusion partners. Residues count along the entry.
UniProt P16056, 25-1379: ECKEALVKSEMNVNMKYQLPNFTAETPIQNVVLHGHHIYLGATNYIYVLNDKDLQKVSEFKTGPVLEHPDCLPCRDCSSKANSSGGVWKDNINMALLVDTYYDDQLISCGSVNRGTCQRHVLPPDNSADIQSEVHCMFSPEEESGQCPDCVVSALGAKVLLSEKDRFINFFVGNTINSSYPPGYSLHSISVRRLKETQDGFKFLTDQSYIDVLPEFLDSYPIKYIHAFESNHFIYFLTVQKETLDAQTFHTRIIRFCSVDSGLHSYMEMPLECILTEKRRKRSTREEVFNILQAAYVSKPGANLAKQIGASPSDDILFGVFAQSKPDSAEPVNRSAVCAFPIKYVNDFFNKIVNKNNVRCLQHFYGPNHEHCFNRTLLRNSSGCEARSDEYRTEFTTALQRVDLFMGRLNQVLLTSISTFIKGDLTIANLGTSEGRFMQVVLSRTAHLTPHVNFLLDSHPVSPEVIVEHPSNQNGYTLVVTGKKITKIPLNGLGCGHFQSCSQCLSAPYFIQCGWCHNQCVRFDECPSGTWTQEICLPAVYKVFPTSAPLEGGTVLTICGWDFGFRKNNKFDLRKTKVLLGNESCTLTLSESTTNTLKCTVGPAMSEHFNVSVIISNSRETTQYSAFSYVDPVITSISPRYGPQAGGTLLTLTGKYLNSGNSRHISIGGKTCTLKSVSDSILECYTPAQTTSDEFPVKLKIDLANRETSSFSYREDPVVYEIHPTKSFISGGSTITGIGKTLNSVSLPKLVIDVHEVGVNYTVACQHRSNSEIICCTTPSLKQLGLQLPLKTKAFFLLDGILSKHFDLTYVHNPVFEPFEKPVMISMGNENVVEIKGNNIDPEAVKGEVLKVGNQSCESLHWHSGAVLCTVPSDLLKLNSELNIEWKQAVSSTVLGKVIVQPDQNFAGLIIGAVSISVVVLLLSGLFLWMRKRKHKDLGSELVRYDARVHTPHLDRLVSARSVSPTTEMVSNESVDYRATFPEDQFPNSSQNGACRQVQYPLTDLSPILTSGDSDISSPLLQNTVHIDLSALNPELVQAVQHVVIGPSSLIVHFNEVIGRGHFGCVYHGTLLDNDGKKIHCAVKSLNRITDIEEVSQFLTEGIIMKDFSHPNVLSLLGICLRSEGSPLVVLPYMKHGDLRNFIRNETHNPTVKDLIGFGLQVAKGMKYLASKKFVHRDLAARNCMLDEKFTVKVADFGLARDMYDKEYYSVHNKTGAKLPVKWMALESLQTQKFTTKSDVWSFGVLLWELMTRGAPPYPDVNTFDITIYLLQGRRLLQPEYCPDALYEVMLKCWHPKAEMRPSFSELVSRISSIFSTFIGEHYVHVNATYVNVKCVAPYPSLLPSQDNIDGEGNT
UniProt P08581, 25-1390: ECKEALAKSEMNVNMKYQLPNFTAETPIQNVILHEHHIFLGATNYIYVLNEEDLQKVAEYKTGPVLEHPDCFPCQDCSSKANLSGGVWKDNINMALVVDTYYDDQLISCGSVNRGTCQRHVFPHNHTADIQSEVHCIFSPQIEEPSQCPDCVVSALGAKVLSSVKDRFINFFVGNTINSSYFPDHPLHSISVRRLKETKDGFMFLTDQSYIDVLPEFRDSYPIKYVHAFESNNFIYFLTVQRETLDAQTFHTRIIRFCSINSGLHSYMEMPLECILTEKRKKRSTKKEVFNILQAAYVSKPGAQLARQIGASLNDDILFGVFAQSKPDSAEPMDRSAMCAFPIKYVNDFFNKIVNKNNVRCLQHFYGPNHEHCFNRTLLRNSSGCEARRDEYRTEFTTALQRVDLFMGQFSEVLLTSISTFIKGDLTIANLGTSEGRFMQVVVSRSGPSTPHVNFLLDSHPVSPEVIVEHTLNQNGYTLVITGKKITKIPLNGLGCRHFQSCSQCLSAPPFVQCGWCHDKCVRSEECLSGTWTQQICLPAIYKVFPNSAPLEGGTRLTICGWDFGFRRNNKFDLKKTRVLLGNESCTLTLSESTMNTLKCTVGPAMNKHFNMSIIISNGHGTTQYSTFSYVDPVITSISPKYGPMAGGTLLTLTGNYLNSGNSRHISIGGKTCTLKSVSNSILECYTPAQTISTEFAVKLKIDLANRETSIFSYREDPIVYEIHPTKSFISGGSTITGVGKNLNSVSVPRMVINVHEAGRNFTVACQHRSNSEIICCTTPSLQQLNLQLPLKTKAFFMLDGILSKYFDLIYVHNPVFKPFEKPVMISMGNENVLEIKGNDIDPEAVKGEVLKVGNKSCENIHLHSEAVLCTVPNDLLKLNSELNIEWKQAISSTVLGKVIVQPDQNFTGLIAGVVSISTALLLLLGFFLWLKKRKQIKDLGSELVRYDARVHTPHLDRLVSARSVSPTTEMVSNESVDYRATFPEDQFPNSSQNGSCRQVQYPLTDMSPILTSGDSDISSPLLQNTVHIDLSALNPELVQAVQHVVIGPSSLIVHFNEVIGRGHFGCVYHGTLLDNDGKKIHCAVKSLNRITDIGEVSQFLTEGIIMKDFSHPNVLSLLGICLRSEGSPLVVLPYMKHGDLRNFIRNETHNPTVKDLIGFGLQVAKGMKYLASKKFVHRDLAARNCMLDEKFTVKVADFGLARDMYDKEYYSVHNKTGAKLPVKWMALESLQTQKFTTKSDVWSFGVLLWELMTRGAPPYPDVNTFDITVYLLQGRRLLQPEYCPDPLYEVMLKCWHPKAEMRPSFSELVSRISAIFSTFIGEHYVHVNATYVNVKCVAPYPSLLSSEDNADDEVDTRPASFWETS

c-Met [2] = molecular target: T2, c-Met (Homo sapiens, UniProt P08581); assay: c-Met cell-based autophosphorylation assay in PC3 cells; conditions: HGF-stimulated c-Met autophosphorylation
T2 construct: host or cells: PC3 cells

Compound	IC50 (c-Met [1])	IC50 (c-Met [2])
O=C(Nc1ccc2cc(-c3cccc4cnccc34)ccc2c1)c1cccs1 [Example 1, N-(6-(isoquinolin-5-yl)naphthalen-2-yl)thiophene-2-carboxamide]	< 1000 nM	–
O=C(Nc1ccc2cc(-c3cccc4c3CNC4=O)ccc2c1)c1ccsc1 [Example 3, N-(6-(1-oxoisoindolin-4-yl)naphthalen-2-yl)thiophene-3-carboxamide]	< 1000 nM	< 1000 nM
O=C1Cc2ccc(-c3ccc4cc(NC(=O)c5ccsc5)ccc4c3)cc2N1 [Example 4, N-(6-(2-oxoindolin-6-yl)naphthalen-2-yl)thiophene-3-carboxamide]	< 1000 nM	< 1000 nM
O=C(Nc1ccc2cc(-c3cccc4[nH]ccc34)ccc2c1)c1ccsc1 [Example 9, N-(6-(1H-indol-4-yl)naphthalen-2-yl)thiophene-3-carboxamide]	< 1000 nM	< 1000 nM
COc1ccc(-c2ccc(Nc3ncccc3C(=O)NCc3ccccc3)cc2)c2ccncc12 [Example 25, N-benzyl-2-(4-(8-methoxyisoquinolin-5-yl)phenylamino)nicotinamide]	< 1000 nM	< 1000 nM
CCOC(=O)c1cccnc1Nc1ccc(-c2ccc(OC)c3cnccc23)cc1 [Example 26, Ethyl 2-(4-(8-methoxyisoquinolin-5-yl)phenylamino)nicotinate]	< 1000 nM	< 1000 nM
COc1ccc(-c2ccc(NC(=O)Cc3ccccc3)cc2)c2ccncc12 [Example 27, N-(4-(8-methoxyisoquinolin-5-yl)phenyl)-2-phenylacetamide]	< 1000 nM	< 1000 nM
COCCNC(=O)c1cccc2cc(-c3cccc4cnccc34)ccc12 [Example 37, 6-(isoquinolin-5-yl)-N-(methoxymethyl)-1-naphthamide]	–	< 1000 nM
O=C(Nc1nccs1)c1cccc2cc(-c3cccc4cnccc34)ccc12 [Example 38, 6-(isoquinolin-5-yl)-N-(thiazol-2-yl)-1-naphthamide]	< 1000 nM	< 1000 nM
